The other results are listed elsewhere or left out.
Key:
Assay in all cases: log2 fold change, soluble protein after heating vs DMSO (PISA); higher = thermal stabilisation; K562 lysate, 10 uM; active = over 0.2 and 3.5 SD of the protein, either way, in both replicates (recomputed)
[1] = compound: C#Cc1cccc(Nc2ncnc3cc(OCCOC)c(OCCOC)cc23)c1 [erlotinib]
Summary of the method: (§1)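 Dounce homogenisation of K562 pellets in PBS pH 7.4 with 1 mM MgCl2 produced a crude extract, used at 1 mg/mL protein. Exposure to 10 μM compound lasted 30 min, and aliquots were then heated for 3 min across 48°C-58°C, pooled and brought to 0.5% NP-40 at 4°C. The supernatant after 21,000xg for 90 min was quantified by TMTpro 16plex LC-MS/MS with channel sums equalised. Duplicate values are given as log-two fold change in thermal stability relative to solvent controls.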

Sequences of proteins named here, by UniProt entry; tags and fusion partners are left off. A change or cut given only in a name is not applied to a line headed by its entry.
UniProt Q13158: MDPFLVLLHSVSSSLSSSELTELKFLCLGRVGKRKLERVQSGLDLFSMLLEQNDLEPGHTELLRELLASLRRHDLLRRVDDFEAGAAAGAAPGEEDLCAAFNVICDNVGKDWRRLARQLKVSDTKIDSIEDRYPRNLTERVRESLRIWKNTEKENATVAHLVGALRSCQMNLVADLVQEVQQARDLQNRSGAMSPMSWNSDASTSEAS
UniProt Q9BS26: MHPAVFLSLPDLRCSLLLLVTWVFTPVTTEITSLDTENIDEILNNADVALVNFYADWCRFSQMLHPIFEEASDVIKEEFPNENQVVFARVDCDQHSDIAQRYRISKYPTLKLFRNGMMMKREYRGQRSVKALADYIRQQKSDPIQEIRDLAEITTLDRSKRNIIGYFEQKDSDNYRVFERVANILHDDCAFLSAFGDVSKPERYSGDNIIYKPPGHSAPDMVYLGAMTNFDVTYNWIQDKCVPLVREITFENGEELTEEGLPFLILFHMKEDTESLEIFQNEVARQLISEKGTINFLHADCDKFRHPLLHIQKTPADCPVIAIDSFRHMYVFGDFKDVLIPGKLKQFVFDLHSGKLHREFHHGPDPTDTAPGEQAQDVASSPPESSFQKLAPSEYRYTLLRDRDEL
UniProt Q01780: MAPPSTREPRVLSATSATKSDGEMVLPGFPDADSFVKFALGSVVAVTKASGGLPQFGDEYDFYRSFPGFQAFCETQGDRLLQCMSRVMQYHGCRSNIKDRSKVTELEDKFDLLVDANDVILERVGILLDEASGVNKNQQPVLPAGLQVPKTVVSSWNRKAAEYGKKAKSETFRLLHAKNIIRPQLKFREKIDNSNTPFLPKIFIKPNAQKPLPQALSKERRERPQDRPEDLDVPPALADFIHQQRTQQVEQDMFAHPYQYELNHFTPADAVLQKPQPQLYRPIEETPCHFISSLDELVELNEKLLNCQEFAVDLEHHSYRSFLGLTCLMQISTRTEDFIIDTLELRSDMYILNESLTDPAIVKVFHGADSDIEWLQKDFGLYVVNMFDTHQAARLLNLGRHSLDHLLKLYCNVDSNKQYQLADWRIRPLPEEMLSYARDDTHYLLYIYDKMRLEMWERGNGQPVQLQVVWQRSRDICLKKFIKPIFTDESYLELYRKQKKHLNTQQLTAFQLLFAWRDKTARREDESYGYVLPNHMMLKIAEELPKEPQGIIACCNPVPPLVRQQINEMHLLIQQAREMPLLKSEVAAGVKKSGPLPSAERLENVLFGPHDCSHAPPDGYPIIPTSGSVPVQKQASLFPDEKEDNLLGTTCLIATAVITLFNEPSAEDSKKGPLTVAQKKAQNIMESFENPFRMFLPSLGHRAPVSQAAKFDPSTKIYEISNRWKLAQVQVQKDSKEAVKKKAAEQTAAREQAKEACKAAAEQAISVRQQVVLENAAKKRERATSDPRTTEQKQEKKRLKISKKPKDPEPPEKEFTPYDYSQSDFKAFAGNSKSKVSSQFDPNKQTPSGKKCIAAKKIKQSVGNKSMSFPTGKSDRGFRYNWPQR
UniProt Q0VG06: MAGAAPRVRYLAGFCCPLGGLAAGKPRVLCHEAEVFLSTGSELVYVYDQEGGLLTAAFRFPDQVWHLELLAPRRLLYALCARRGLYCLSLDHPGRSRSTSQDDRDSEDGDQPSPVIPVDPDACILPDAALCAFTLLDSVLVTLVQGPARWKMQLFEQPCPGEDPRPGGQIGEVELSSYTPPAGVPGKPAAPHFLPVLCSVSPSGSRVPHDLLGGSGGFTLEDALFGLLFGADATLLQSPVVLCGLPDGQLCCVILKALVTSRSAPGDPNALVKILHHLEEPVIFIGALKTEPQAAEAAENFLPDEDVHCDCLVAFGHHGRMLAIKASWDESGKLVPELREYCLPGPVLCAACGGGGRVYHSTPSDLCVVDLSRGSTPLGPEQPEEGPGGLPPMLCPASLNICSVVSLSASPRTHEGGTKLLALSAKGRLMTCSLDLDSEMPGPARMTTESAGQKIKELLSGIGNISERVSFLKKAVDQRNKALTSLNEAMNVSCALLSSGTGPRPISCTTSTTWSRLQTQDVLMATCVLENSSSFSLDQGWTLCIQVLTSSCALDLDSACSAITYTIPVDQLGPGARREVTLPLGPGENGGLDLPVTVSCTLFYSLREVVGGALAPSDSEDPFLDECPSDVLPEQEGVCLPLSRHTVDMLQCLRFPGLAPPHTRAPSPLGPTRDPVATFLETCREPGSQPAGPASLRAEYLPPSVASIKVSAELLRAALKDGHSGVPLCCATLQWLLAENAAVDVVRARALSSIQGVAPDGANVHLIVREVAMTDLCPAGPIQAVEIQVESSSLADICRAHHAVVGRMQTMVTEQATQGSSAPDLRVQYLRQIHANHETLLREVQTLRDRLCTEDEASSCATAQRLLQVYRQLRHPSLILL
UniProt Q8WUF8: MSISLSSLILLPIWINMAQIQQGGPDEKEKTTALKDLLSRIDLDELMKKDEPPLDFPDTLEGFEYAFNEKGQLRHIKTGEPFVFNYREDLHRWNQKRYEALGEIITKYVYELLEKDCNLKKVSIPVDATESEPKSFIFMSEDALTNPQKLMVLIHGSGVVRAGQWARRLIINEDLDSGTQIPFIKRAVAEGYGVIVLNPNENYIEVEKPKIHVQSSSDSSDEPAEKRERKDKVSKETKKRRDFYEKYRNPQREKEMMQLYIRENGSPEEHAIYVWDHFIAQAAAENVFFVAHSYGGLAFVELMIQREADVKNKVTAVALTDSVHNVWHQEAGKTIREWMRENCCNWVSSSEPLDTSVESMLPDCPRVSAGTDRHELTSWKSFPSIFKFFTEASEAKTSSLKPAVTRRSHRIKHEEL
UniProt Q14153: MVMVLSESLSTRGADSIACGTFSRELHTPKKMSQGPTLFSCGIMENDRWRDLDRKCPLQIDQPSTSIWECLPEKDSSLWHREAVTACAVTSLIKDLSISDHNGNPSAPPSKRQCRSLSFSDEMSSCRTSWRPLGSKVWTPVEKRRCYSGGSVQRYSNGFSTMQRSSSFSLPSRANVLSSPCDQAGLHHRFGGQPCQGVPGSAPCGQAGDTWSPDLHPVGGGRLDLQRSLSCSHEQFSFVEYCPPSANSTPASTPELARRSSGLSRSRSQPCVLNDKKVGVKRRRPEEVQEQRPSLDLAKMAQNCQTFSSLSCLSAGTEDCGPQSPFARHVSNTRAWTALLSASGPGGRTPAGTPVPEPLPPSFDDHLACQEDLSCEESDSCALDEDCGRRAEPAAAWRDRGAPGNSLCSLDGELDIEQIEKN
UniProt Q9UPT5: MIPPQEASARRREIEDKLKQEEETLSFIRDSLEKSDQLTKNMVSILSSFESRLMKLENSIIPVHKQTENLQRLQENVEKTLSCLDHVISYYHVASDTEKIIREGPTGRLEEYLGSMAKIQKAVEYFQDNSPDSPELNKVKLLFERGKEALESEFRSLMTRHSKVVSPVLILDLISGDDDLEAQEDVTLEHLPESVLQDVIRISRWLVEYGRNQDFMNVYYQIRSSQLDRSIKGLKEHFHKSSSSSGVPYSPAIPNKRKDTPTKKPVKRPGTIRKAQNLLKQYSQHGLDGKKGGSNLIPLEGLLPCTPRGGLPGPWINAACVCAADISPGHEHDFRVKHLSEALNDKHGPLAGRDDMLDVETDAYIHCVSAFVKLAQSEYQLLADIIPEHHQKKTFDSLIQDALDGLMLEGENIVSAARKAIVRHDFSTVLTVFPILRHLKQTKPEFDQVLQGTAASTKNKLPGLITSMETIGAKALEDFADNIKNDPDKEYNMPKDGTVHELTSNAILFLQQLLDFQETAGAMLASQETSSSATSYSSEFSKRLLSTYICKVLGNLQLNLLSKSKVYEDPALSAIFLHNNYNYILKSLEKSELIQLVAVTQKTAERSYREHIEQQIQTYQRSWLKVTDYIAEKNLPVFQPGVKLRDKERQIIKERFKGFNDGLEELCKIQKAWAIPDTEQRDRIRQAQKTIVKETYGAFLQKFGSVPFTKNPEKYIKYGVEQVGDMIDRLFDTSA
UniProt Q5HYJ3: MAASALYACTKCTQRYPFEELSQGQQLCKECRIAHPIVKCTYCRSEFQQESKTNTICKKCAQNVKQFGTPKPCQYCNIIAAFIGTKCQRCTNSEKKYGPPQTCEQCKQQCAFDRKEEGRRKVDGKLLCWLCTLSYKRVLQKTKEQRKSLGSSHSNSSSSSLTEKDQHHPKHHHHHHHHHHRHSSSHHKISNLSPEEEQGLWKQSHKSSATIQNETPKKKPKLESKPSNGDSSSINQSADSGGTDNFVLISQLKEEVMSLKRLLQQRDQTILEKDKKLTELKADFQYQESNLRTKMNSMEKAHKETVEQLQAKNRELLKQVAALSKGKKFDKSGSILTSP
UniProt Q06265, whole entry, looked up: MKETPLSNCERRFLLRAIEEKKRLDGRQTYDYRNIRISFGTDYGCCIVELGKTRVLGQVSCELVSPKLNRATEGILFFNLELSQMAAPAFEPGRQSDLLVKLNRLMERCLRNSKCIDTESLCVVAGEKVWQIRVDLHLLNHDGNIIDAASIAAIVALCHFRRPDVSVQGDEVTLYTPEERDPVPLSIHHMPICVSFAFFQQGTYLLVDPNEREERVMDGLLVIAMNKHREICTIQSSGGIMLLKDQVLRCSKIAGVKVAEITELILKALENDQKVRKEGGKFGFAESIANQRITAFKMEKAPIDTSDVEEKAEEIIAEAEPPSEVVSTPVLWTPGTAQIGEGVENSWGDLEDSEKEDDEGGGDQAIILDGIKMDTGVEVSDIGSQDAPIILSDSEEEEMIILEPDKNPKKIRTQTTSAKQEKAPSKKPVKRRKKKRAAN
UniProt Q9UBQ6: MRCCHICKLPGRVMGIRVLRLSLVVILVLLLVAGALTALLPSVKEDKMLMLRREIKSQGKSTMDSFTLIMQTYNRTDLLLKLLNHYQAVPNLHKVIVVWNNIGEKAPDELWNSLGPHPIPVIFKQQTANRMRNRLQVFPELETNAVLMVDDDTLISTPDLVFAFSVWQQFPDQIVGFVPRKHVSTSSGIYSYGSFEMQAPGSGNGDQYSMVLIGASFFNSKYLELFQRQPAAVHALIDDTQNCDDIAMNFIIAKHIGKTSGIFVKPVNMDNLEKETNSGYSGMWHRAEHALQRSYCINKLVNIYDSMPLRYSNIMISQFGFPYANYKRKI
UniProt Q9NV70: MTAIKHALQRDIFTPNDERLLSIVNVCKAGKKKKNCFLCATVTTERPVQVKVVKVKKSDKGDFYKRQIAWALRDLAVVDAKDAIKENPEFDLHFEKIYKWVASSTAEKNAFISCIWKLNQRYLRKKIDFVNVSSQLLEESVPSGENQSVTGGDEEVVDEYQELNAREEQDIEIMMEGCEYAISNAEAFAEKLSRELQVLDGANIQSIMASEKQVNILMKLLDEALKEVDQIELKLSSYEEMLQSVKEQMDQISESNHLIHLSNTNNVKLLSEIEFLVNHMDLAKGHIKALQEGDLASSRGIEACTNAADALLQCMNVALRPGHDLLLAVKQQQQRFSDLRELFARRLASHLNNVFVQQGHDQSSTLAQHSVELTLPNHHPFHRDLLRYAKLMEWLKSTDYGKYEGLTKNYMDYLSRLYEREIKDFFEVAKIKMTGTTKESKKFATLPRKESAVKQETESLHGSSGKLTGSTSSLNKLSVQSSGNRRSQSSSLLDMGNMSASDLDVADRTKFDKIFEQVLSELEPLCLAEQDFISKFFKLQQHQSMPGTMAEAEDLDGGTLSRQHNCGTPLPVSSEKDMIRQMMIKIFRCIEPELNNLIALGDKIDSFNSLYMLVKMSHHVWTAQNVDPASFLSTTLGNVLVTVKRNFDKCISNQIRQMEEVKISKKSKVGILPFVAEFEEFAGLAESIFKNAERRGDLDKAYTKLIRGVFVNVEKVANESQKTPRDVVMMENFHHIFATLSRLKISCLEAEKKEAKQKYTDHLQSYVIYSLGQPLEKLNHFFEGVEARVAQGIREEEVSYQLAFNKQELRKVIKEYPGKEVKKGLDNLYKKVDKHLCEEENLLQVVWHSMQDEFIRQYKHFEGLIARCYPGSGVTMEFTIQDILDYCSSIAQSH
UniProt Q9H0X4: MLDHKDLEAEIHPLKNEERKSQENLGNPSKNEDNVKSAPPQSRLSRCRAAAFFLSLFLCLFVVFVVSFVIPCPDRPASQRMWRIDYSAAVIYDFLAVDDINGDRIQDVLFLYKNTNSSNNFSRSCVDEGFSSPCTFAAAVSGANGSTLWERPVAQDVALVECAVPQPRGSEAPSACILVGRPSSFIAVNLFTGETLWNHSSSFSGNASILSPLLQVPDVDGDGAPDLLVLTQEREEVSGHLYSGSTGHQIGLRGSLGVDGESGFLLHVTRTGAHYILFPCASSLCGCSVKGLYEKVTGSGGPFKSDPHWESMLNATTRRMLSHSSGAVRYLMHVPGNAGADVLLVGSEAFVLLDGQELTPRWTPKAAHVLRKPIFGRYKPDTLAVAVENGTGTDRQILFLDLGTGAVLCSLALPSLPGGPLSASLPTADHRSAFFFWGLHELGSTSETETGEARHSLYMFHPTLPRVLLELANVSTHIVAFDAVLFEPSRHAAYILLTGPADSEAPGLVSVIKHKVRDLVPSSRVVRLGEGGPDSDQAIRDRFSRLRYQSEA

[2] = compound: C/C(=N\NC(=O)C1=CC(=CC=C1)S(=O)(=O)N2CCOCC2)/C3=C(C=CC(=C3)Cl)O
Summary of the method: as §1

[3] = compound: C1=CC(=CC=C1C2=NC3=C(N2)C=C(C=C3)C(=O)N)OC4=CC=C(C=C4)Cl
Summary of the method: as §1

[4] = compound: C1=CC2=C(C=CC(=C2)/C=C\3/C(=O)NC(=NCC4=CC=CS4)S3)N=C1
Summary of the method: as §1

[5] = compound: C1=CC2=NC=CN=C2C=C1/C=C/3\C(=O)NC(=O)S3
Summary of the method: as §1

[6] = compound: C1=CC=C(C=C1)C2=NC(=C(N2)C3=CC=NC=C3)C4=CC(=C(C=C4)Cl)O
Summary of the method: as §1

[7] = compound: C1=CC=C2C(=C1)C3=NNC4=CC=CC(=C43)C2=O
Summary of the method: as §1

[8] = compound: C1CCN(C1)C(=O)NC2=CC=CC(=C2)NC3=NC=C(C(=N3)NCCC4=CN=CN4)Br
Summary of the method: as §1

[9] = compound: C1CN(CCC1(CC2=CC=C(C=C2)Cl)N)C3=NC=NC4=C3C=CN4
Summary of the method: as §1

[10] = compound: C1COCCN1CCN2C3=CC=CC=C3N=C2NC(=O)C4=CC(=CC=C4)[N+](=O)[O-] [IRAK-1-4 Inhibitor I]
Summary of the method: as §1

Measured: log2 fold change

EXOC8 (UniProt Q8IYI6)
inactive: [1] 0.048 | [2] -0.007 | [3] 0.005 | [4] 0.014 | [5] 0.022 | [6] -0.024 | [7] -0.048 | [8] 0.013 | [9] 0.034 | [10] -0.004

EXT2 isoform 3 (UniProt Q93063)
inactive: [1] 0.066 | [2] -0.02 | [3] -0.008 | [4] -0.066 | [5] 0.034 | [6] -0.024 | [7] 0.025 | [8] 0.023 | [9] 0.008 | [10] 0.073

FAM49B (UniProt Q9NUQ9)
inactive: [1] -0.002 | [2] 0.028 | [3] -0.005 | [4] -0.003 | [5] -0.005 | [6] -0.007 | [7] 0.015 | [8] -0.009 | [9] 0.002 | [10] -0.004

ESD (UniProt P10768)
inactive: [1] -0.005 | [2] 0.012 | [3] -0.013 | [4] -0.003 | [5] -0.002 | [6] 0.022 | [7] 0.019 | [8] 0.002 | [9] 0.03 | [10] -0.016

FAM76A isoform 3 (UniProt Q8TAV0)
inactive: [1] 0.043 | [2] -0.077 | [3] -0.011 | [4] -0.068 | [5] -0.09 | [6] -0.059 | [7] 0.041 | [8] 0.021 | [9] -0.008 | [10] 0.013

Reprinted from above (two entries):
ESD (UniProt P10768)
inactive: [1] -0.005 | [2] 0.012 | [3] -0.013 | [4] -0.003 | [5] -0.002 | [6] 0.022 | [7] 0.019 | [8] 0.002 | [9] 0.03 | [10] -0.016

FAM76A isoform 3 (UniProt Q8TAV0)
inactive: [1] 0.043 | [2] -0.077 | [3] -0.011 | [4] -0.068 | [5] -0.09 | [6] -0.059 | [7] 0.041 | [8] 0.021 | [9] -0.008 | [10] 0.013

Additional results.

FADD (UniProt Q13158)
inactive: [1] -0.008 | [2] 0.034 | [3] -0.031 | [4] -0.063 | [5] -0.005 | [6] -0.05 | [7] 0.073 | [8] 0.022 | [9] -0.041 | [10] -0.005

FAM107B isoform 2 (UniProt Q9H098)
inactive: [1] 0.033 | [2] 0.064 | [3] 0.077 | [4] 0.024 | [5] -0.026 | [6] 0.064 | [7] -0.11 | [8] -0.005 | [9] 0.046 | [10] -0.023

EXOSC4 (UniProt Q9NPD3)
inactive: [1] -0.018 | [2] -0.032 | [3] -0.003 | [4] -0.006 | [5] 0.035 | [6] 0.021 | [7] 0 | [8] -0.015 | [9] 0.007 | [10] -0.007

ERP44 (UniProt Q9BS26)
inactive: [1] -0.032 | [2] 0.015 | [3] 0.009 | [4] 0 | [5] -0.009 | [6] -0.022 | [7] -0.011 | [8] 0.007 | [9] 0 | [10] -0.011

EXOSC10 (UniProt Q01780)
inactive: [1] 0.047 | [2] -0.004 | [3] 0.021 | [4] 0.04 | [5] -0.015 | [6] 0.053 | [7] 0.038 | [8] -0.011 | [9] 0.005 | [10] 0.016

FAAP100 (UniProt Q0VG06)
inactive: [1] -0.026 | [2] 0.234 | [3] 0.01 | [4] 0.048 | [5] 0.001 | [6] -0.006 | [7] -0.069 | [8] 0.08 | [9] 0.066 | [10] 0.07

FAM172A (UniProt Q8WUF8)
inactive: [1] -0.084 | [2] 0.034 | [3] 0.224 | [4] -0.035 | [5] -0.319 | [6] 0.099 | [7] 0.008 | [8] 0.188 | [9] 0.112 | [10] 0.006

FAM53B (UniProt Q14153)
inactive: [1] 0.057 | [2] -0.087 | [3] -0.03 | [4] 0.015 | [5] -0.004 | [6] -0.047 | [7] -0.024 | [8] -0.034 | [9] 0.006 | [10] 0.203

FAF2 (UniProt Q96CS3)
inactive: [1] 0.024 | [2] 0.005 | [3] -0.016 | [4] 0.021 | [5] -0.031 | [6] -0.001 | [7] -0.016 | [8] -0.012 | [9] 0.031 | [10] 0.034

EXOC7 (UniProt Q9UPT5)
inactive: [1] 0.048 | [2] 0.033 | [3] 0.032 | [4] -0.04 | [5] 0.046 | [6] 0.006 | [7] -0.071 | [8] -0.02 | [9] 0.019 | [10] -0.001

ETFA (UniProt P13804)
inactive: [1] -0.001 | [2] 0.051 | [3] -0.043 | [4] -0.034 | [5] 0.02 | [6] -0.012 | [7] 0.01 | [8] -0.005 | [9] 0.009 | [10] -0.024

ETFDH (UniProt Q16134)
inactive: [1] -0.024 | [2] 0.031 | [3] 0.006 | [4] -0.034 | [5] 0.008 | [6] -0.006 | [7] -0.009 | [8] 0.108 | [9] 0.021 | [10] 0.034

FAM210B (UniProt Q96KR6)
inactive: [1] -0.034 | [2] -0.14 | [3] 0.05 | [4] -0.048 | [5] 0.049 | [6] -0.049 | [7] 0.102 | [8] -0.01 | [9] 0.082 | [10] 0.06

FAM76B (UniProt Q5HYJ3)
inactive: [1] -0.027 | [2] -0.35 | [3] -0.016 | [4] -0.137 | [6] -0.053 | [7] 0.046 | [8] -0.019 | [9] 0.061 | [10] -0.008

FAM117B (UniProt Q6P1L5)
inactive: [1] -0.13 | [2] -0.27 | [3] -0.021 | [4] 0.006 | [6] 0.187 | [7] -0.036 | [10] 0.184

F11R (UniProt Q9Y624)
inactive: [1] 0.007 | [2] -0.097 | [3] 0.035 | [4] -0.013 | [5] -0.02 | [6] -0.001 | [7] 0.034 | [8] 0.007 | [9] 0.014 | [10] 0.021

EXO1 (UniProt Q9UQ84)
inactive: [1] 0.139 | [2] -0.059 | [3] -0.093 | [4] 0.026 | [6] 0.005 | [7] -0.279 | [10] 0.038

FAM207A (UniProt Q9NSI2)
inactive: [1] -0.028 | [2] -0.014 | [3] 0.049 | [4] -0.02 | [5] -0.041 | [6] -0.005 | [7] -0.024 | [8] -0.053 | [9] 0.035 | [10] 0.013

EXOSC9 (UniProt Q06265)
inactive: [1] -0.001 | [2] -0.019 | [3] 0.002 | [4] 0.006 | [5] 0.012 | [6] 0.017 | [7] -0.003 | [8] 0.009 | [9] 0 | [10] 0.006

EXTL2 (UniProt Q9UBQ6)
inactive: [1] -0.02 | [2] -0.037 | [3] 0.072 | [4] 0.103 | [5] -0.443 | [6] 0 | [7] 0.092 | [8] 0.003 | [9] -0.007 | [10] -0.049

EXOC1 (UniProt Q9NV70)
inactive: [1] 0.05 | [2] -0.005 | [3] -0.047 | [4] -0.009 | [5] 0.074 | [6] -0.035 | [7] -0.043 | [8] 0.014 | [9] -0.016 | [10] -0.011

FAM234A (UniProt Q9H0X4)
inactive: [1] 0.049 | [2] -0.064 | [3] 0.057 | [4] -0.019 | [5] 0.046 | [6] -0.026 | [7] -0.096 | [8] 0.043 | [9] 0.036 | [10] -0.035

Source: the supplement of paper PMC10849652
